Source: the supplement of paper PMC4604168 (melanoma cell lines)
This is one part of the list. Repeats are few or missing, and single values can be far off.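 The apoptosis fraction was the count of cleaved-PARP antibody-stained nuclei relative to all DNA-stained nuclei, imaged in 1,536-well plates. Screening doses were set so most cells survived, and baseline and induced cleaved-PARP levels vary greatly across cell lines.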

Experiments:
Assay in all cases: cleaved PARP positive nuclei fraction relative to DMSO control; melanoma cells; higher = more apoptosis
Settings in all cases: library dose: low library concentration; 72 h
[1] = system: WM115
[2] = system: WM1716
[3] = system: WM1745
[4] = system: WM3526
[5] = system: WM3619
[6] = system: WM451Lu

Row | SMILES | cleaved PARP positive nuclei fraction [1] | cleaved PARP positive nuclei fraction [2] | cleaved PARP positive nuclei fraction [3] | cleaved PARP positive nuclei fraction [4] | cleaved PARP positive nuclei fraction [5] | cleaved PARP positive nuclei fraction [6]
1 | CC[C@]1(O)C[C@H]2CN(CCc3c([nH]c4ccccc34)[C@@](C(=O)OC)(c3cc4c(cc3OC)N(C=O)[C@H]3[C@@](O)(C(=O)OC)[C@H](OC(C)=O)[C@]5(CC)C=CCN6CC[C@]43[C@@H]65)C2)C1 [vincristine] + Cc1ccc(NC(=O)c2cccc(N(C)C)c2)cc1NC(=O)c1ccc(O)cc1 [ZM336372] (first compound 0.0001 µM, partner dose 2 µM) | 417% | 199% | 118% | 198% | 146% | 278%
2 | COc1cc([C@@H]2c3cc4c(cc3[C@@H](O[C@@H]3O[C@@H]5CO[C@@H](C)O[C@H]5[C@H](O)[C@H]3O)[C@H]3COC(=O)[C@H]23)OCO4)cc(OC)c1O [etoposide] + N#Cc1c(O)c2c(-c3ccc(-c4ccccc4O)cc3)csc2[nH]c1=O [A769662] (first compound 0.02 µM, partner dose 2 µM) | 171% | 57.9% | 80.1% | 78.7% | 82.4% | 80.1%
3 | O=C(/C=C/c1cccnc1)NCCCCC1CCN(C(=O)c2ccccc2)CC1 + O=S(=O)(c1ccccc1)N(CC(F)(F)F)c1ccc(C(O)(C(F)(F)F)C(F)(F)F)cc1 [T0901317] (first compound 0.01 µM, partner dose 1.4 µM) | 155% | 368% | 102% | 254% | 129% | 11%
4 | O=C(Nc1cc(C(F)(F)F)cc(C(F)(F)F)c1)c1cc(Cl)ccc1O + O=C(Nc1ccccc1)c1cc([N+](=O)[O-])ccc1Cl [GW9662] (first compound 0.016 µM, partner dose 2 µM) | 204% | 197% | 89.1% | 83.8% | 92.3% | 145%
5 | N#CC[C@H](C1CCCC1)n1cc(-c2ncnc3[nH]ccc23)cn1 [ruxolitinib] + Cc1cc([N+](=O)[O-])ccc1NS(=O)(=O)c1cc(Cl)ccc1Cl [FH535] (first compound 1 µM, partner dose 1 µM) | 147% | 82% | 75.5% | 37.2% | 117% | 74%
6 | Cc1cc(Nc2cc(N3CCN(C)CC3)nc(Sc3ccc(NC(=O)C4CC4)cc3)n2)n[nH]1 [Tozasertib] + CC[C@]1(O)C[C@H]2CN(CCc3c([nH]c4ccccc34)[C@@](C(=O)OC)(c3cc4c(cc3OC)N(C=O)[C@H]3[C@@](O)(C(=O)OC)[C@H](OC(C)=O)[C@]5(CC)C=CCN6CC[C@]43[C@@H]65)C2)C1 [vincristine] (first compound 0.006 µM, partner dose 0.0001 µM) | 728% | 142% | 123% | 57.7% | 153% | 94.2%
7 | N#CC[C@H](C1CCCC1)n1cc(-c2ncnc3[nH]ccc23)cn1 [ruxolitinib] + CC(C)C[C@H](NC(=O)[C@H](Cc1ccccc1)NC(=O)c1cnccn1)B(O)O [Bortezomib] (first compound 1 µM, partner dose 0.001 µM) | 38.6% | 52.3% | 103% | 40% | 146% | 91.1%
8 | Cc1ccc(Nc2nccc(N(C)c3ccc4c(C)n(C)nc4c3)n2)cc1S(N)(=O)=O [Pazopanib] + C=C(c1ccc(C(=O)O)cc1)c1cc2c(cc1C)C(C)(C)CCC2(C)C [Bexarotene] (first compound 0.4 µM, partner dose 2 µM) | 98.2% | 89.6% | 97.5% | 51.7% | 80.7% | 51.2%
9 | Cc1ccc(Nc2nccc(N(C)c3ccc4c(C)n(C)nc4c3)n2)cc1S(N)(=O)=O [Pazopanib] + Cc1cn(-c2cc(NC(=O)c3ccc(C)c(Nc4nccc(-c5cccnc5)n4)c3)cc(C(F)(F)F)c2)cn1 [nilotinib] (first compound 0.4 µM, partner dose 0.2 µM) | 30.1% | 69.4% | 100% | 319% | 97.7% | 49%
10 | COc1cc([C@@H]2c3cc4c(cc3[C@@H](O[C@@H]3O[C@@H]5CO[C@@H](C)O[C@H]5[C@H](O)[C@H]3O)[C@H]3COC(=O)[C@H]23)OCO4)cc(OC)c1O [etoposide] + CCN(CC)CCNC(=O)c1c(C)[nH]c(/C=C2\C(=O)Nc3ccc(F)cc32)c1C [sunitinib] (first compound 0.02 µM, partner dose 0.4 µM) | 73.2% | 81.6% | 96.6% | 167% | 83.9% | 53.2%
11 | CCCCCCCCCCCCCCCCCCOP(=O)([O-])OC1CC[N+](C)(C)CC1 [Perifosine] + C[C@@H](Oc1cc(-c2cnn(C3CCNCC3)c2)cnc1N)c1c(Cl)ccc(F)c1Cl [Crizotinib] (first compound 0.4 µM, partner dose 0.2 µM) | 155% | 59.1% | 75.6% | 88.7% | 99% | 70.4%
12 | O=c1[nH]nc(Sc2ncc([N+](=O)[O-])s2)n1-c1ccc2c(c1)OCCO2 + O=C1NC(=O)/C(=C/c2ccc(-c3ccc(F)cc3O)o2)S1 [AS252424] (first compound 0.2 µM, partner dose 1 µM) | 91.8% | 53.2% | 91.3% | 71.8% | 79.3% | 20.7%
13 | O=c1[nH]nc(Sc2ncc([N+](=O)[O-])s2)n1-c1ccc2c(c1)OCCO2 + Cn1nnc2c(C(N)=O)ncn2c1=O [temozolomide] (first compound 0.2 µM, partner dose 2 µM) | 72.3% | 85.4% | 101% | 32.3% | 102% | 176%
14 | CC[C@]1(O)C[C@H]2CN(CCc3c([nH]c4ccccc34)[C@@](C(=O)OC)(c3cc4c(cc3OC)N(C=O)[C@H]3[C@@](O)(C(=O)OC)[C@H](OC(C)=O)[C@]5(CC)C=CCN6CC[C@]43[C@@H]65)C2)C1 [vincristine] + O=S(=O)(c1ccccc1)N(CC(F)(F)F)c1ccc(C(O)(C(F)(F)F)C(F)(F)F)cc1 [T0901317] (first compound 0.0001 µM, partner dose 1.4 µM) | 1830% | 163% | 134% | 130% | 175% | 164%
15 | COc1cc([C@@H]2c3cc4c(cc3[C@@H](O[C@@H]3O[C@@H]5CO[C@@H](C)O[C@H]5[C@H](O)[C@H]3O)[C@H]3COC(=O)[C@H]23)OCO4)cc(OC)c1O [etoposide] + Oc1nc(-c2ccc(C(F)(F)F)cc2)nc2c1CSCC2 [XAV939] (first compound 0.02 µM, partner dose 2 µM) | 37.5% | 111% | 92.4% | 54.9% | 95.1% | 70.8%
16 | Cc1cc(Nc2cc(N3CCN(C)CC3)nc(Sc3ccc(NC(=O)C4CC4)cc3)n2)n[nH]1 [Tozasertib] + CC(C)(C)c1cnc(CSc2cnc(NC(=O)C3CCNCC3)s2)o1 [SNS-032] (first compound 0.006 µM, partner dose 0.01 µM) | 67.5% | 47.3% | 89.5% | 182% | 98.3% | 120%
17 | CC[C@]1(O)C[C@H]2CN(CCc3c([nH]c4ccccc34)[C@@](C(=O)OC)(c3cc4c(cc3OC)N(C=O)[C@H]3[C@@](O)(C(=O)OC)[C@H](OC(C)=O)[C@]5(CC)C=CCN6CC[C@]43[C@@H]65)C2)C1 [vincristine] + Cn1cnc2c(F)c(Nc3ccc(Br)cc3Cl)c(C(=O)NOCCO)cc21 [selumetinib] (first compound 0.0001 µM, partner dose 0.015 µM) | 1340% | 127% | 108% | 109% | 188% | 404%
18 | Cc1ccc(Nc2nccc(N(C)c3ccc4c(C)n(C)nc4c3)n2)cc1S(N)(=O)=O [Pazopanib] + CCCCCCCCc1ccc(CCC(N)(CO)CO)cc1 [fingolimod] (first compound 0.4 µM, partner dose 2 µM) | 35.5% | 193% | 97.6% | 91.3% | 108% | 66.5%
19 | O=C(/C=C/c1cccnc1)NCCCCC1CCN(C(=O)c2ccccc2)CC1 + Cn1c(=O)n(-c2ccc(C(C)(C)C#N)cc2)c2c3cc(-c4cnc5ccccc5c4)ccc3ncc21 [NVP-BEZ235] (first compound 0.01 µM, partner dose 0.004 µM) | 69.5% | 21.3% | 109% | 36.8% | 96.4% | 89.6%
20 | Cc1cc(Nc2cc(N3CCN(C)CC3)nc(Sc3ccc(NC(=O)C4CC4)cc3)n2)n[nH]1 [Tozasertib] + CC(C)C[C@H](NC(=O)[C@H](Cc1ccccc1)NC(=O)c1cnccn1)B(O)O [Bortezomib] (first compound 0.006 µM, partner dose 0.001 µM) | 128% | 102% | 118% | 189% | 189% | 94.9%
21 | COc1cc([C@@H]2c3cc4c(cc3[C@@H](O[C@@H]3O[C@@H]5CO[C@@H](C)O[C@H]5[C@H](O)[C@H]3O)[C@H]3COC(=O)[C@H]23)OCO4)cc(OC)c1O [etoposide] + NC1(c2ccc(-c3nc4ccn5c(=O)[nH]nc5c4cc3-c3ccccc3)cc2)CCC1 [MK2206] (first compound 0.02 µM, partner dose 0.4 µM) | 233% | 76.3% | 152% | 52.5% | 79.8% | 144%
22 | O=c1[nH]nc(Sc2ncc([N+](=O)[O-])s2)n1-c1ccc2c(c1)OCCO2 + C[C@@H](Oc1cc(-c2cnn(C3CCNCC3)c2)cnc1N)c1c(Cl)ccc(F)c1Cl [Crizotinib] (first compound 0.2 µM, partner dose 0.2 µM) | 78.8% | 77.5% | 90.4% | 183% | 90.7% | 98.2%

An excerpt of these results, with tabs:
Row	SMILES	cleaved PARP positive nuclei fraction [1]	cleaved PARP positive nuclei fraction [2]	cleaved PARP positive nuclei fraction [3]	cleaved PARP positive nuclei fraction [4]	cleaved PARP positive nuclei fraction [5]	cleaved PARP positive nuclei fraction [6]
18	Cc1ccc(Nc2nccc(N(C)c3ccc4c(C)n(C)nc4c3)n2)cc1S(N)(=O)=O [Pazopanib] + CCCCCCCCc1ccc(CCC(N)(CO)CO)cc1 [fingolimod] (first compound 0.4 µM, partner dose 2 µM)	35.5%	193%	97.6%	91.3%	108%	66.5%
19	O=C(/C=C/c1cccnc1)NCCCCC1CCN(C(=O)c2ccccc2)CC1 + Cn1c(=O)n(-c2ccc(C(C)(C)C#N)cc2)c2c3cc(-c4cnc5ccccc5c4)ccc3ncc21 [NVP-BEZ235] (first compound 0.01 µM, partner dose 0.004 µM)	69.5%	21.3%	109%	36.8%	96.4%	89.6%
